Measurements as given in patent publication US20240301218A1 (THE UNIVERSITY OF BRITISH COLUMBIA, priority 2021, published 2024).

Experiment: Fmoc solid-phase peptide synthesis
Conditions: whole synthesis, analytical RP-HPLC and LC-MS

Substance: KRWRIRVRVIRK-bA-bA-C—NH2
- final HPLC purity: >90%
